Where two headings read alike, the source gives them in different places. No constants are given. Whether binding was seen depends on the method and setting. Binding seen in cells or lysates may run through a third protein. Some entries that bind do so weakly or less than the wild type. Sequences can lack the tags named with a protein. Each block holds one molecule with its values, some of them ahead of it.
Assays:
[1] = biological target: T1, Myc-tagged full-length CRB3A (Myc-CRB3A WT) (human) (UniProt Q9BUF7); assay: co-IP; anti-Myc immunoprecipitation from lysates of SKCO-15 cells transfected with Myc-Crb3 WT or mutants; relaxation lysis buffer (10 mM HEPES, 10 mM NaCl, 3.5 mM MgCl2, 100 mM KCl, 1% octyl glucoside); 5 ug/mL antibody or control IgG overnight at 4°C; protein G Dynabeads; Western blotting for NF2, Ezrin, PALS1 and Myc-tag
T1 sequence: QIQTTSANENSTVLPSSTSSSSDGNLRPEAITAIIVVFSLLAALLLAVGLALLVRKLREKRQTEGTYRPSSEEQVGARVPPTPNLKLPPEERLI

The chains behind the UniProt entries cited, without tags or fusion partners.
UniProt P15311: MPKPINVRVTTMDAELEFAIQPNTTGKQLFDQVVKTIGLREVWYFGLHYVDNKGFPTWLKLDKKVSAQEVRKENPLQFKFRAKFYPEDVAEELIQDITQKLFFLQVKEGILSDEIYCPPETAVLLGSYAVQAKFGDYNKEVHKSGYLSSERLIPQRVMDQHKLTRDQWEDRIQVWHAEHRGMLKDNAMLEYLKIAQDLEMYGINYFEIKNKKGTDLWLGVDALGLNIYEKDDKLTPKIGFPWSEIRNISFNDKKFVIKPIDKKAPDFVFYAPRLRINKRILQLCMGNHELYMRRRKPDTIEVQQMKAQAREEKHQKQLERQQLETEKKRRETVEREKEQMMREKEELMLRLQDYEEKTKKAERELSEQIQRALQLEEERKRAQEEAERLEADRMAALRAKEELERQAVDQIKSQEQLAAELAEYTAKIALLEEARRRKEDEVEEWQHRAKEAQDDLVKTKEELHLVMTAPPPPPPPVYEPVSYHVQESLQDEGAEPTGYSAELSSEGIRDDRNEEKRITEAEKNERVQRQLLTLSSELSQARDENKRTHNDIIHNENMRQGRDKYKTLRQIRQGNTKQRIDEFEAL

[2] = biological target: T1, Myc-tagged full-length CRB3A (Myc-CRB3A WT) (human); assay: as above; remark: listed apart in the source

binding [1]: no binding
Molecule: Ezrin, endogenous (from UniProt P15311 1-586)

binding [2]: binds
B1: PALS1 (protein associated with Lin seven), endogenous (protein, UniProt Q8N3R9 1-675)
chain: MTTSHMNGHVTEESDSEVKNVDLASPEEHQKHREMAVDCPGDLGTRMMPIRRSAQLERIRQQQEDMRRRREEEGKKQELDLNSSMRLKKLAQIPPKTGIDNPMFDTEEGIVLESPHYAVKILEIEDLFSSLKHIQHTLVDSQSQEDISLLLQLVQNKDFQNAFKIHNAITVHMNKASPPFPLISNAQDLAQEVQTVLKPVHHKEGQELTALLNTPHIQALLLAHDKVAEQEMQLEPITDERVYESIGQYGGETVKIVRIEKARDIPLGATVRNEMDSVIISRIVKGGAAEKSGLLHEGDEVLEINGIEIRGKDVNEVFDLLSDMHGTLTFVLIPSQQIKPPPAKETVIHVKAHFDYDPSDDPYVPCRELGLSFQKGDILHVISQEDPNWWQAYREGDEDNQPLAGLVPGKSFQQQREAMKQTIEEDKEPEKSGKLWCAKKNKKKRKKVLYNANKNDDYDNEEILTYEEMSLYHQPANRKRPIILIGPQNCGQNELRQRLMNKEKDRFASAVPHTTRSRRDQEVAGRDYHFVSRQAFEADIAAGKFIEHGEFEKNLYGTSIDSVRQVINSGKICLLSLRTQSLKTLRNSDLKPYIIFIAPPSQERLRALLAKEGKNPKPEELREIIEKTREMEQNNGHYFDTAIVNSDLDKAYQELLRLINKLDTEPQWVPSTWLR

Source: publication PMC12581665
